In article PMC9368931, “Involvement of a Cluster of Basic Amino Acids in Phosphorylation-Dependent Functional Repression of the Ceramide Transport Protein CERT” (International Journal of Molecular Sciences, 2022):
No constants are given. Whether binding was seen depends on the method and setting. In cells and extracts the contact can be indirect. Some results given as binding are weak or reduced against the parent protein; the word gives no strength. Sequences can lack the tags named with a protein.

T1: N-terminal FLAG-tagged VAP-A (vesicle-associated membrane protein-associated protein A) (human) (UniProt Q9P0L0)
T1 sequence: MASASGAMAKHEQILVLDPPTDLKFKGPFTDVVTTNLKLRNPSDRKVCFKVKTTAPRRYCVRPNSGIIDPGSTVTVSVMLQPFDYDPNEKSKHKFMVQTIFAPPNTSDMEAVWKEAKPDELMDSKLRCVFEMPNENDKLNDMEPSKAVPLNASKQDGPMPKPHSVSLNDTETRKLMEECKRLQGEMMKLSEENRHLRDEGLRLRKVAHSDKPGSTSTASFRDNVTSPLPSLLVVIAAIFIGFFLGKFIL


Molecular target: T1, N-terminal FLAG-tagged VAP-A (vesicle-associated membrane protein-associated protein A) (human)
Test: co-IP; HA-CERT and FLAG-VAP-A co-expressed in CERT KO HeLa cells; cells cross-linked with 2 mM dithiobis(succinimidyl propionate) on ice 30 min before lysis in 1% Triton X-100; IP with anti-HA or anti-FLAG M2 agarose; cross-link cleaved with DTT; western blot

binding | Binder
binds | Recombinant human CERT S132A purified from Sf21 cells (natural protein, UniProt Q9Y5P4-2 1-598, looked up, Ceramide transport protein CERT (GPBPΔ26), human, printed length 598 amino acids; The template plasmid is named pBS/nHAcFL-CERT, which may mean a further C-terminal FLAG tag; Mainly a homo-trimer by cross-linking and blue native PAGE; not shown: HA, N-terminal, kept) MSDNQSWNSSGSEEDPETESGPPVERCGVLSKWTNYIHGWQDRWVVLKNNALSYYKSEDETEYGCRGSICLSKAVITPHDFDECRFDISVNDSVWYLRAQDPDHRQQWIDAIEQHKTESGYGSESSLRRHGAMVSLVSGASGYSATSTSSFKKGHSLREKLAEMETFRDILCRQVDTLQKYFDACADAVSKDELQRDKVVEDDEDDFPTTRSDGDFLHSTNGNKEKLFPHVTPKGINGIDFKGEAITFKATTAGILATLSHCIELMVKREDSWQKRLDKETEKKRRTEEAYKNAMTELKKKSHFGGPDYEEGPNSLINEEEFFDAVEAALDRQDKIEEQSQSEKVRLHWPTSLPSGDAFSSVGTHRFVQKVEEMVQNHMTYSLQDVGGDANWQLVVEEGEMKVYRREVEENGIVLDPLKATHAVKGVTGHEVCNYFWNVDVRNDWETTIENFHVVETLADNAIIIYQTHKRVWPASQRDVLYLSVIRKIPALTENDPETWIVCNFSVDHDSAPLNNRCVRAKINVAMICQTLVSPPEGNQEISRDNILCKITYVANVNPGGWAPASVLRAVAKREYPKFLKRFTSYVQEKTAGKPILF
binds | Recombinant human CERT S132A/13A purified from Sf21 cells (natural protein, UniProt Q9Y5P4-2 1-598, looked up, Ceramide transport protein CERT (GPBPΔ26), human, printed length 598 amino acids; The template plasmid is named pBS/nHAcFL-CERT, which may mean a further C-terminal FLAG tag; also called S132/13A; not shown: HA, N-terminal, kept) MSDNQSWNSSGSEEDPETESGPPVERCGVLSKWTNYIHGWQDRWVVLKNNALSYYKSEDETEYGCRGSICLSKAVITPHDFDECRFDISVNDSVWYLRAQDPDHRQQWIDAIEQHKTESGYGSESSLRRHGAMVSLVSGASGYSATSTSSFKKGHSLREKLAEMETFRDILCRQVDTLQKYFDACADAVSKDELQRDKVVEDDEDDFPTTRSDGDFLHSTNGNKEKLFPHVTPKGINGIDFKGEAITFKATTAGILATLSHCIELMVAAEDSWQAALDAETEAAAATEEAYANAMTELAAASHFGGPDYEEGPNSLINEEEFFDAVEAALDRQDKIEEQSQSEKVRLHWPTSLPSGDAFSSVGTHRFVQKVEEMVQNHMTYSLQDVGGDANWQLVVEEGEMKVYRREVEENGIVLDPLKATHAVKGVTGHEVCNYFWNVDVRNDWETTIENFHVVETLADNAIIIYQTHKRVWPASQRDVLYLSVIRKIPALTENDPETWIVCNFSVDHDSAPLNNRCVRAKINVAMICQTLVSPPEGNQEISRDNILCKITYVANVNPGGWAPASVLRAVAKREYPKFLKRFTSYVQEKTAGKPILF
binds | N-terminal HA-tagged CERT 13A (protein, UniProt Q9Y5P4-2 1-598) MSDNQSWNSSGSEEDPETESGPPVERCGVLSKWTNYIHGWQDRWVVLKNNALSYYKSEDETEYGCRGSICLSKAVITPHDFDECRFDISVNDSVWYLRAQDPDHRQQWIDAIEQHKTESGYGSESSLRRHGSMVSLVSGASGYSATSTSSFKKGHSLREKLAEMETFRDILCRQVDTLQKYFDACADAVSKDELQRDKVVEDDEDDFPTTRSDGDFLHSTNGNKEKLFPHVTPKGINGIDFKGEAITFKATTAGILATLSHCIELMVAAEDSWQAALDAETEAAAATEEAYANAMTELAAASHFGGPDYEEGPNSLINEEEFFDAVEAALDRQDKIEEQSQSEKVRLHWPTSLPSGDAFSSVGTHRFVQKVEEMVQNHMTYSLQDVGGDANWQLVVEEGEMKVYRREVEENGIVLDPLKATHAVKGVTGHEVCNYFWNVDVRNDWETTIENFHVVETLADNAIIIYQTHKRVWPASQRDVLYLSVIRKIPALTENDPETWIVCNFSVDHDSAPLNNRCVRAKINVAMICQTLVSPPEGNQEISRDNILCKITYVANVNPGGWAPASVLRAVAKREYPKFLKRFTSYVQEKTAGKPILF
